PubChem BioAssay AID1224826, NIAID, 2016
This is a random part of about 17,000 reagents. About 1,110 of them (6.6%) count as active. 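Active means lowered or raised reporter signal; replicate intensities are raw and not normalised per plate.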 A number with no mark means an inactive call. Not all columns of the deposit are shown.

- Purpose: 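Genes that change LPS-induced Tnf promoter activity in mouse macrophages when knocked down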 (primary screen)
- Cell system: RAW264.7 G9 macrophages from mouse bearing reporters for p65 (GFP) and the Tnf promoter (mCherry)
- Reagent: siRNA pool against mouse genes, 100 nM
- Duration: 16 h of LPS stimulation, after 2 days of siRNA transfection
- Conditions: bacterial lipopolysaccharide (Salmonella minnesota R595), 10 ng/ml
- Read-out: 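Imaged Tnf reporter mCherry in nuclei, minus background, normalised per plate to the median and expressed as robust z-scores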
- Direction: Tnf reporter robust z-score: higher = stronger Tnf promoter reporter signal after LPS
- Active means: 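Called active when robust z-score is at most -1.3, matching the median of the Tlr4 knock-down control, or over 3; control wells and wells with under 50 cells never active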
- Calls: active = Tnf reporter clearly lowered or raised; inactive = no clear change in Tnf reporter

{"Gene": "Tfap2d (GeneID 226896)", "Tnf reporter robust z-score": -0.25, "fewer than 50 cells in well": "enough cells in well"}
{"Gene": "Gstm6 (GeneID 14867)", "Tnf reporter robust z-score": -0.26, "fewer than 50 cells in well": "enough cells in well"}
{"Gene": "Vangl2 (GeneID 93840)", "Tnf reporter robust z-score": -0.91, "fewer than 50 cells in well": "enough cells in well"}
{"Gene": "Crhbp (GeneID 12919)", "Tnf reporter robust z-score": 0.63, "fewer than 50 cells in well": "enough cells in well"}
{"Gene": "Ocrl (GeneID 320634)", "Tnf reporter robust z-score": -0.48, "fewer than 50 cells in well": "enough cells in well"}
{"Gene": "Mtrfr (GeneID 72650)", "Tnf reporter robust z-score": -0.46, "fewer than 50 cells in well": "enough cells in well"}
{"Gene": "Esrp2 (GeneID 77411)", "Tnf reporter robust z-score": -0.4, "fewer than 50 cells in well": "enough cells in well"}
{"Gene": "Tubb2b (GeneID 73710)", "Tnf reporter robust z-score": -0.19, "fewer than 50 cells in well": "enough cells in well"}
{"Gene": "Mmachc (GeneID 67096)", "fewer than 50 cells in well": "fewer than 50 cells per well; well left out of calls"}
{"Gene": "Fdxacb1 (GeneID 382137)", "Tnf reporter robust z-score": -0.5, "fewer than 50 cells in well": "enough cells in well"}
{"Gene": "AW551984 (GeneID 244810)", "Tnf reporter robust z-score": 0.5, "fewer than 50 cells in well": "enough cells in well"}
{"Gene": "Cnr1 (GeneID 12801)", "Tnf reporter robust z-score": -1.18, "fewer than 50 cells in well": "enough cells in well"}
{"Gene": "Slc6a4 (GeneID 15567)", "Tnf reporter robust z-score": -0.49, "fewer than 50 cells in well": "enough cells in well"}
{"Gene": "Nipa2 (GeneID 93790)", "Tnf reporter robust z-score": 2.32, "fewer than 50 cells in well": "enough cells in well"}
{"Gene": "Pcdha10 (GeneID 12943)", "Tnf reporter robust z-score": 1.82, "fewer than 50 cells in well": "enough cells in well"}
{"Gene": "Bpifa1 (GeneID 18843)", "Tnf reporter robust z-score": "-2.09 (active)", "fewer than 50 cells in well": "enough cells in well"}
{"Gene": "Or51q1 (GeneID 259122)", "Tnf reporter robust z-score": 0.27, "fewer than 50 cells in well": "enough cells in well"}
{"Gene": "Fis1 (GeneID 66437)", "Tnf reporter robust z-score": 0.17, "fewer than 50 cells in well": "enough cells in well"}
{"Gene": "4933440M02Rik (GeneID 71208)", "Tnf reporter robust z-score": -0.43, "fewer than 50 cells in well": "enough cells in well"}
{"Gene": "Or6d14 (GeneID 258754)", "Tnf reporter robust z-score": -1.17, "fewer than 50 cells in well": "enough cells in well"}
{"Gene": "Apon (GeneID 28194)", "Tnf reporter robust z-score": -0.86, "fewer than 50 cells in well": "enough cells in well"}
